Test results reported in PubChem BioAssay AID651660 (Broad Institute, 2012).
Among all 1,900 compounds or so, about 15 (0.8%) were called active.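 How the source made its calls: active means every replicate shows at least 50% inhibition; inconclusive means mean inhibition at least 50% but some replicate below; inactive means the rest.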 The list shows a part of the results.

Protein sequences, listed by entry. Tags and fused reporters are not part of them. Lines headed by an entry give the natural chain unless they say otherwise; changes in a name come on top.
UniProt P43351: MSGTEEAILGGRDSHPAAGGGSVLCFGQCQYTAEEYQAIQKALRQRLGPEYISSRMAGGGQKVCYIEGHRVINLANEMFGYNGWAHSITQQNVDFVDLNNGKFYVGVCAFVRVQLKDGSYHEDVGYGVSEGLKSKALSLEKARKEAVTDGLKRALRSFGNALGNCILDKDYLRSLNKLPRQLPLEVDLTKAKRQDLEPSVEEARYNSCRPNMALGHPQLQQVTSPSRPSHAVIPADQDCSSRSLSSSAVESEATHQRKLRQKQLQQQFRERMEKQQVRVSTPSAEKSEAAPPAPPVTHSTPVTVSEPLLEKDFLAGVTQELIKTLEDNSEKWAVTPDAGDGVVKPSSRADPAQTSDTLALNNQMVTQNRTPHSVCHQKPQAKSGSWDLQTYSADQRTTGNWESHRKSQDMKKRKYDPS

The compounds below were run against DNA repair protein RAD52 homolog (Homo sapiens) (UniProt P43351) (assay: inhibition of RAD52-mediated strand annealing – biochemical, FRET, single point, primary screen (AID 651660;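 further: 0% = median of neutral control wells and 100% = median of positive control wells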)). Settings: Recombinant RAD52 ssDNA annealing, FRET fluorescence, 30 min; at 18.7 µM; active compounds read high.
For `CCn1c2ccccc2c2cc(CC(N)=O)ccc21`, the inhibition was inactive: 0.948%.
`CCn1c(/C=C/c2ccccc2)nc2ccccc2c1=O` was tested, and the inhibition was inactive: -9.41%.
`CN1CCN(C2=Nc3cc(Cl)ccc3Nc3ccccc32)CC1` was tested, and the inhibition was inactive: 11.5%.
For `Cc1cccc(-n2c(Cc3ccccc3)n[nH]c2=S)c1`, the inhibition was inactive: -6.53%.
With `O[C@@H](CNC[C@H](O)c1ccccc1)c1ccccc1` the inhibition was inactive: -5.65%.
`O=C(Nc1cccc(Cl)c1)N1CCN2C(=O)c3ccccc3C12c1ccccc1` (stereo unspecified) was tested, and the inhibition was inactive: 10%.
In the case of `Cc1nc2ccccc2n1CC(=O)NC1CCCC1`, the inhibition is reported as inactive: -8.58%.
In the case of `CC(C)(C)c1csc(N/N=C/c2cccnc2)n1`, the inhibition is reported as inactive: 10.6%.
In the case of `NC12CC3CC(CC(C3)C1)C2`, the inhibition is reported as inactive: 10.2%.
In the case of `Cc1cc(Cl)cc2c1NC(=O)[C@]21[C@@H]2C(=O)N(Cc3ccccc3)C(=O)[C@@H]2[C@@H]2CCCN21`, the inhibition is reported as inactive: -18.1%.
In the case of `N/C(=N\OC(=O)CCCOc1ccc(Cl)cc1Cl)c1ccccn1`, the inhibition is reported as inactive: 0.236%.
`Cc1ccc(-c2nn(-c3cccc(F)c3)cc2CN2CCN(c3ccccn3)CC2)o1` was tested, and the inhibition was inactive: -31.4%.
For `COc1cc(C2Nc3ccccc3C(=O)N2c2ccccc2)ccc1O` (stereo unspecified), the inhibition was inactive: -15.2%.
In the case of `Cc1ccc2nc(N=C(N)N)nc(C)c2c1`, the inhibition is reported as active: 66.7%.
`COc1cc(C(=O)N/C(=C\c2cn(C)c3ccccc23)C(=O)NCCCO)cc(OC)c1OC` was tested, and the inhibition was inactive: 2.3%.
With `CCn1ccnc1CN(C)Cc1cn(-c2cccc(C)c2)nc1-c1cccc(F)c1` the inhibition was inactive: 48.3%.
In the case of `c1cnc2c(c1)ccc1cccnc12`, the inhibition is reported as inactive: -16.8%.
`CC1(C)CC(=O)c2cc(O)ccc2O1` was tested, and the inhibition was inactive: 0.351%.
In the case of `CCC(NC(C)C)C(O)c1ccc(O)c(O)c1` (stereo unspecified), the inhibition is reported as inactive: -2.83%.
`CCOc1ccc(OCCSc2nc3ccccc3[nH]2)cc1` was tested, and the inhibition was inactive: 1.75%.
For `CC(C)C1CC(CCNCc2ccc(N(C)C)cc2)(c2ccccc2)CCO1` (stereo unspecified), the inhibition was inactive: 37.8%.
`COc1ccccc1-c1c(C(F)(F)F)oc2cc(OC(=O)c3ccc([N+](=O)[O-])cc3)ccc2c1=O` was tested, and the inhibition was inactive: -10.4%.
In the case of `COc1cc(OC)c(C(=O)CCCN2CCCC2)c(OC)c1`, the inhibition is reported as inactive: -3.52%.
With `CCN1CCn2c3c(c4cc(Cl)ccc42)CCCC31` (stereo unspecified) the inhibition was inactive: -6.95%.
In the case of `Cc1ccc2c(CC(=O)O)coc2c1`, the inhibition is reported as inactive: -14.4%.
For `CCOC(=O)NN1C(=O)c2ccccc2NC1c1ccc(OC)c(OC)c1` (stereo unspecified), the inhibition was inactive: 7.01%.
With `O=C1C=CC(=O)C(C2=C3C(=O)N(CCc4ccccc4)CC(=O)N3CCC2)=C1` the inhibition was inactive: -6.11%.
In the case of `C[C@]12C=CC(=O)C=C1CCC1C3CC[C@](O)(C(=O)CO)[C@@]3(C)CC3OC312` (stereo partly specified), the inhibition is reported as inactive: -3.11%.
For `COc1cc2c(cc1OC)-c1cc(OCc3ccccc3Cl)nc(=O)n1CC2`, the inhibition was inactive: -10.9%.
`COc1ccccc1N1CCN(CC(O)COc2cccc3ccccc23)CC1` (stereo unspecified) was tested, and the inhibition was inactive: 9.55%.
For `CN1CCC(=C2c3ccccc3CC(=O)c3sccc32)CC1`, the inhibition was inactive: -4.37%.
For `COc1ccc(NC(=S)N2CCN(CCN3C(=O)c4cccc5cccc(c45)C3=O)CC2)cc1`, the inhibition was inactive: 17.9%.
In the case of `OC(CCCN1CCC(O)(c2ccc(Cl)cc2)CC1)c1ccc(F)cc1` (stereo unspecified), the inhibition is reported as inactive: -8.05%.
With `COc1ccc(-c2c(NC(=O)c3ccco3)n(C)c3ccccc3c2=O)cc1` the inhibition was inactive: -17.5%.
In the case of `Clc1cc(-c2ccc(/C=N/n3cnnc3)o2)ccc1Br`, the inhibition is reported as inactive: -281%.
With `CSCCC(NC(C)=O)C(=O)Oc1ccc2c3c(c(=O)oc2c1)CCCC3` (stereo unspecified) the inhibition was inactive: -4.83%.
For `CCOc1ccc(N2C(=O)CC(NCCNc3ccc([N+](=O)[O-])cn3)C2=O)cc1` (stereo unspecified), the inhibition was inactive: -4.24%.
For `Cc1oc(/C=N/NC(=O)CC2(C)OCCO2)cc1Br`, the inhibition was inactive: -12.8%.
`Cn1c(=S)n(C)c2ccccc21` was tested, and the inhibition was inactive: -9.01%.
With `COc1ccc(C(C)=O)c2c1OCCO2` the inhibition was inactive: 1.15%.
For `CCC(=O)c1ccc(O)cc1`, the inhibition was inactive: -2.03%.
In the case of `C=CCC1(Cl)C(=O)C(Cl)=C(N2CCOCC2)C1(OC)OC` (stereo unspecified), the inhibition is reported as inactive: 3.46%.
With `Cc1cc(C)cc(Nc2nc3c([nH]2)c(=O)n(C)c(=O)n3C)c1` the inhibition was inactive: -0.06%.
For `CC(C)(C)C(=O)NCCCNc1ccc([N+](=O)[O-])cc1`, the inhibition was inactive: -3.87%.
`CN1CCCN=C1COC(=O)C(O)(c1ccccc1)C1CCCCC1` (stereo unspecified) was tested, and the inhibition was inactive: -2.24%.
In the case of `O=Cc1ccc(O)c(O)c1`, the inhibition is reported as inactive: -7.36%.
For `C[C@H](NC(=O)NCCc1ccccc1)C(=O)O`, the inhibition was inactive: -11.4%.
`COC(=O)c1[nH]c2ccccc2c1NC(=O)CN1CCN(C/C=C/c2ccccc2)CC1` was tested, and the inhibition was inactive: 9.39%.
With `COc1ccc(-c2cc(=O)oc3c(C)c(O)c(CN(C)C)cc23)cc1` the inhibition was inactive: -25.3%.
With `COC(=O)c1cc(-c2c(C)oc3cc(OC)ccc3c2=O)c(C)o1` the inhibition was inactive: 2.67%.
With `O=C1CCCC(=O)C1=Cc1c[nH]c2ccccc12` the inhibition was inactive: -7.11%.
In the case of `CC(=O)O[C@H]1CSC[C@H]1NC(=O)c1ccccc1`, the inhibition is reported as inactive: -6.56%.
In the case of `CC1=C/C(=N\N=C2\NC(=O)C(CC(=O)Nc3ccccc3F)S2)CC(C)(C)C1` (stereo unspecified), the inhibition is reported as inactive: -3.25%.
For `COc1ccc(C(=O)Nc2ncc3c(n2)CC(C)CC3=O)cc1` (stereo unspecified), the inhibition was inactive: -7.8%.
With `CC(=O)Oc1ccc2c(=O)c(Oc3ccccc3[N+](=O)[O-])coc2c1` the inhibition was inactive: -8.07%.
`C=C(C)c1nc2cc(OC)c(OC)cc2c(=O)o1` was tested, and the inhibition was inactive: 2.61%.
With `CCOC(=O)[C@H](CCc1ccccc1)N[C@@H](C)C(=O)N1CCC[C@H]1C(=O)O` the inhibition was inactive: -1.23%.
With `O=C(Nc1ccc(N2CCOCC2)cc1)c1ccc(-c2ccccc2[N+](=O)[O-])o1` the inhibition was inactive: -3.44%.
`Cc1ccc2c(c1)C1(C(=O)N2)N2CCCC2C(C(=O)c2ccc3ccccc3c2)C12C(=O)Nc1ccccc12` (stereo unspecified) was tested, and the inhibition was inactive: 8.82%.
`C[C@]12CC[C@@H]3c4ccc(O)cc4CC[C@H]3[C@@H]1C[C@@H](O)[C@@H]2O[C@@H]1O[C@H](C(=O)O)[C@@H](O)[C@H](O)[C@H]1O` was tested, and the inhibition was inactive: 5.26%.
In the case of `CCC(=O)Nc1ccc(C(=O)N2CCN(C(=O)c3ccco3)CC2)cc1`, the inhibition is reported as inactive: -9.41%.
With `Cc1ccc2c(c1)C1OCCC1C1N2C(=O)C2C(C(=O)O)C3C=CC21O3` (stereo unspecified) the inhibition was inactive: -2.31%.
In the case of `COC(=O)c1ccc(OCCCCN2CC(C)OC(C)C2)cc1` (stereo unspecified), the inhibition is reported as inactive: -1.97%.
`O=C(Nc1ccc(F)c([N+](=O)[O-])c1)c1ccc2c(c1)OCCO2` was tested, and the inhibition was inactive: -13.5%.
For `CCOC(=O)C1(Cc2cccc(Cl)c2)CCCN(C2CCN(C(C)=O)CC2)C1` (stereo unspecified), the inhibition was inactive: -44.5%.
`CC(C)NS(=O)(=O)c1ccc(OCC(=O)Nc2cccc(F)c2)cc1` was tested, and the inhibition was inactive: 0.0325%.
In the case of `CC1(C)c2ccccc2N2CC(=O)NC21/C=C/c1ccco1` (stereo unspecified), the inhibition is reported as inactive: -75.3%.
`COC(=O)c1cc(-c2ccc(C)o2)nc2ccccc12` was tested, and the inhibition was inactive: -16.8%.
For `CN(C)CC/C=C1\c2ccccc2COc2ccccc21`, the inhibition was inactive: 4.76%.
For `CC(C)CCc1noc(CN2CCC(CCN3CCCC3=O)CC2)n1`, the inhibition was inactive: -7.02%.
`Cc1oc2c(C)c3oc(=O)c4c(c3cc2c1C)CCCC4` was tested, and the inhibition was inactive: -0.076%.
In the case of `CCCCC(=O)O[C@]1(C(=O)CO)CC[C@H]2[C@@H]3CCC4=CC(=O)CC[C@]4(C)[C@H]3[C@@H](O)C[C@@]21C`, the inhibition is reported as inactive: -7.18%.
In the case of `CCc1cccc2c3c([nH]c12)C(CC)(CC(=O)O)OCC3` (stereo unspecified), the inhibition is reported as inactive: -2.3%.
With `CCCC(=O)Nc1ccccc1NC(C)=O` the inhibition was inactive: -0.651%.
With `COc1ccc(OC)c(NC2=C(Cl)C(=O)N(Cc3ccccc3)C2=O)c1` the inhibition was inactive: -4.08%.
For `COc1ccc(CNC(=O)c2cc3c(=O)n4ccccc4nc3n(Cc3cccnc3)c2=N)cc1`, the inhibition was inactive: -27.7%.
With `COc1ccc(CNC(=O)C2CCCN2C)cc1OC` (stereo unspecified) the inhibition was inactive: 0.649%.
`COc1ccccc1Oc1c(C)oc2c(CN3CCN(CCO)CC3)c(O)ccc2c1=O` was tested, and the inhibition was inactive: 1.49%.
With `COc1ccccc1N=CC1=C(O)CC(c2ccccc2)CC1=O` (stereo unspecified) the inhibition was inactive: -25.4%.
With `C=C1C2(C(=O)Nc3ccc(SC(F)F)cc3)CCC(C2)C1(C)C` (stereo unspecified) the inhibition was inactive: 12.2%.
For `CC[N+]1(CC)CC2=Cc3ccccc3CC2C1` (stereo unspecified), the inhibition was inactive: -3.96%.
With `COc1ccc2c(CCNC(=O)c3ccc([N+](=O)[O-])cc3)c[nH]c2c1` the inhibition was inactive: -2.51%.
For `Cc1cccc(Oc2coc3cc(OC(=O)c4cncc(Br)c4)ccc3c2=O)c1`, the inhibition was inactive: -14.2%.
For `CCNC(=O)C(Cc1ccccc1)NC(=O)OCc1ccccc1` (stereo unspecified), the inhibition was inactive: -6.26%.
In the case of `O=C1OC(=O)C2C1[C@@H]1CC[C@H]2O1` (stereo partly specified), the inhibition is reported as inactive: -10.6%.
`COc1ccc2c(c1)CC[C@@H]1[C@@H]2CC[C@]2(C)C(=O)CC[C@@H]12` was tested, and the inhibition was inactive: 9.56%.
`OC(CCN1CCCCC1)(c1ccccc1)C1CCCCC1` (stereo unspecified) was tested, and the inhibition was inactive: 5.63%.
For `CCOC(=O)c1cc2c(nc1N)CC(C)(CC)OC2` (stereo unspecified), the inhibition was inactive: -11.6%.
For `O=C(CN1C(=O)C2CCc3[nH]c4ccccc4c3C2C1=O)N1CCCC1` (stereo unspecified), the inhibition was inactive: -14.6%.
With `Nc1cc(-c2ccncc2)c[nH]c1=O` the inhibition was inactive: -48.5%.
For `CS(=O)c1ccccc1O` (stereo unspecified), the inhibition was inactive: 5.06%.
With `Cc1cccc(C2=N/C(=C\c3cccnc3)C(=O)O2)c1` the inhibition was inactive: -6.72%.
In the case of `COc1ccc(C2C(C(=O)c3ccco3)=C(O)C(=O)N2CC2CCCO2)cc1` (stereo unspecified), the inhibition is reported as inactive: -24.3%.
`CCOC(=O)C(=Cc1ccccc1OC)C(=O)OCC` was tested, and the inhibition was inactive: 1.51%.
With `COc1cc(C2Nc3ccccc3NC3=C2C(=O)CC(c2ccc(OC)c(OC)c2)C3)ccc1O` (stereo unspecified) the inhibition was inactive: 5.95%.
In the case of `COc1ccc(C(=O)Nc2ccc(OC)c([N+](=O)[O-])c2)cc1Br`, the inhibition is reported as inactive: 5.07%.
